Some entries share one result that the patent states for a list of compounds. Some ranges recur; such a range may be that of the whole group of compounds.
System: Lovenox
Assay: Neutralization of Lovenox by peptides in vivo, anti-Factor Xa assay
Conditions: rats, within 2 minutes of injection of the peptide; Lovenox 43 IU anti-FXa/kg; peptide 2 mg except where noted

| Substance | neutralization of the Lovenox concentration |
| --- | --- |
| (ARKKAAKA)4 (ARKKAAKAARKKAAKAARKKAAKAARKKAAKA; protein fragment) [XBBBXXBX tandem repeat peptide] | 50%-80% |
| (ARKKAAKA)5 (ARKKAAKAARKKAAKAARKKAAKAARKKAAKAARKKAAKA; protein fragment) [XBBBXXBX tandem repeat peptide] | 50%-80% |
| AKKARAAKKARAAKKARAAKKARAAKKARAAKKARA [(AKKARA)6, XBBXBX tandem repeat peptide] | 50%-80% |
